Measured values from patent US20250064853A1 (GYALA THERAPEUTICS SOCIEDAD LIMITADA, published 2025).
These are yes or no findings as the source states them, for the method shown. Some binding calls cover weakened binding; strength is not graded here.

Tests used:
[1] = target: T1, Human CD84 produced by mammalian cells (CD84 antigen) (human) (UniProt Q9UIB8); experiment: phage display screening on CD84 antigen
T1 sequence: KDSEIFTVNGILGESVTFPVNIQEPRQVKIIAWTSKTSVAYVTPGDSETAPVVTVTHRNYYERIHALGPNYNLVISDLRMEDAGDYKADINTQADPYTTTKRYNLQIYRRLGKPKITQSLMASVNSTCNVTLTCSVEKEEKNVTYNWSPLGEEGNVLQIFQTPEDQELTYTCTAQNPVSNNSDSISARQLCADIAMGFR

[2] = target: T1, Human CD84 produced by mammalian cells (CD84 antigen) (human); experiment: monoclonal phage ELISA on coated CD84 antigen

Binder | binding [1] | binding [2]
R3-G7 (scFv) scFv: QVQLVESGGGVVQPGRSLRLSCTASGFTFSSYPMHWVRQAPGKGLEWVAAISYHGRNKFYADSVKGRFTISRDDLRSTLYLQMNNLKADDTAVYSCARDRDATPGGTGVGNHGMAVWGQGTTVTVSSGGGGSGGGGSGGGGSGGGGASEIVLTQSPLSLPVTPGEPASISCKSSQSLLHSSGYNYLDWYLQKPGQSPQLLIHMGSNRASGVPARFSGSGSGTDFTLRISRVEAEDVGVYYCMQGLQTPPTFGGGTKLEIK | binds | binds
R3-H3 (scFv) scFv: EVQLVESGGGLVQPGGSLRLSCAASGFTFSDNAMSWVRQAPGKGLEWVSAISGTGRTTYYADSVKGRFTISRDNSKNTLYLQMNSLRAEDTAVYYCAKWDCSDGRCYWAYWGQGTLVTVSSGGGGSGGGGSGGGGSGGGGASEIVLTQSPLSLPVTLGQPASISCRSSQSLVYSDGDTYLNWFQQRPGQSPRRLIYKVSNRDSGVPDRFSGSGSGTDFTLKISRVEAEDVGVYYCMQGTHWPPNTFGQGTRLEIK | binds | binds
